From the supplement of paper PMC4604168 (melanoma cell lines)
The list shows a part of the results. Single values are uncertain, as repeats are few or missing.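 The apoptosis fraction was the count of cleaved-PARP antibody-stained nuclei relative to all DNA-stained nuclei, imaged in 1,536-well plates. Screening doses were set so most cells survived, and baseline and induced cleaved-PARP levels vary greatly across cell lines.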

System: LOXIMVI
Test: cleaved PARP positive nuclei fraction relative to DMSO control; melanoma cells; higher = more apoptosis
Conditions: library dose: low library concentration; 72 h

| Structure (SMILES) | cleaved PARP positive nuclei fraction |
| --- | --- |
| Cc1cn(-c2cc(NC(=O)c3ccc(C)c(Nc4nccc(-c5cccnc5)n4)c3)cc(C(F)(F)F)c2)cn1 [nilotinib] + Nc1nc(F)nc2c1ncn2[C@@H]1O[C@H](CO)[C@@H](O)[C@@H]1O [fludarabine] (first compound 0.2 µM, partner dose 0.2 µM) | 90% |
| O=c1[nH]nc(Sc2ncc([N+](=O)[O-])s2)n1-c1ccc2c(c1)OCCO2 + CO[C@H]1C[C@@H]2CC[C@@H](C)[C@@](O)(O2)C(=O)C(=O)N2CCCC[C@H]2C(=O)O[C@H]([C@H](C)C[C@@H]2CC[C@@H](OCCO)[C@H](OC)C2)CC(=O)[C@H](C)/C=C(\C)[C@@H](O)[C@@H](OC)C(=O)[C@H](C)C[C@H](C)/C=C/C=C/C=C/1C [everolimus] (first compound 0.2 µM, partner dose 0.02 µM) | 78.1% |
| O=c1[nH]nc(Sc2ncc([N+](=O)[O-])s2)n1-c1ccc2c(c1)OCCO2 + Cn1nnc2c(C(N)=O)ncn2c1=O [temozolomide] (first compound 0.2 µM, partner dose 2 µM) | 212% |
| Cc1cc(Nc2cc(N3CCN(C)CC3)nc(Sc3ccc(NC(=O)C4CC4)cc3)n2)n[nH]1 [Tozasertib] + C[C@@H](Oc1cc(-c2cnn(C3CCNCC3)c2)cnc1N)c1c(Cl)ccc(F)c1Cl [Crizotinib] (first compound 0.006 µM, partner dose 0.2 µM) | 84.8% |
| O=c1[nH]nc(Sc2ncc([N+](=O)[O-])s2)n1-c1ccc2c(c1)OCCO2 + NC(=O)c1ccc(N(C(N)=O)c2c(F)cccc2F)nc1-c1ccc(F)cc1F [VX702] (first compound 0.2 µM, partner dose 0.4 µM) | 23.4% |
